From PubChem BioAssay AID485298 (National Center for Advancing Translational Sciences (NCATS), 2010)
In all, about 320,000 compounds went through this assay and about 740 (0.23%) were called active. Inconclusive results, whose numbers are uncertain, are shown with a selection of clear calls. Calls come from the whole dose curve; as a rule, active = well fitted activation curve with a large enough effect; inconclusive = small, poorly fitted or top-dose-only effect; inactive = no such curve, though single readings can be large or run the other way. Where the call is inconclusive, the potency comes from a doubtful curve fit.

Experiment: qHTS Assay for Small Molecule Inhibitors of Mitochondrial Division or Activators of Mitochondrial Fusion; note: nearly all actives have a fitted effect of over 45% in size;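 for growth rescue (activation): temperature-sensitive fusion mutants such as fzo1-1 at 37 °C on non-fermentable ethanol glycerol medium; % of control where 0% means no effect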
Conditions: S. cerevisiae fusion-defective mutant growth rescue, CellTiterGlo 48 h; growth rescue (activation): at 46.1 µM (top of the series) unless noted
In short: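 Yeast fusion mutant, YPEG (non-fermentable carbon), compound, 48 h at 37C non-permissive; CellTiterGlo added, 10 min RT, luminescence read. Rescued growth = division inhibition.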
Potency is the fitted concentration of half-maximal effect.

SMILES	Potency	growth rescue (activation)
CCOc1ccc(NC(=O)C2Cc3ccccc3CN2S(=O)(=O)CC)cc1 (configuration not stated)	inconclusive: 3.16 µM [activator, partial curve]	
CCCC[C@]12Cc3ccccc3C(O1)c1c(c3ccccc3oc1=O)O2		inactive: -0.241% [at 9.22 µM]
CCC(=O)Nc1ccc(NC(=S)NC(=O)Cc2ccccc2)cc1	inactive	
COc1ccnc(CSC(N)=Nc2cccc(C(F)(F)F)c2)c1	inconclusive: 31.6 µM [activator, single point]	
CC(=O)C1=C(C)NC(SCC(=O)c2ccc(Cl)cc2Cl)=C(C#N)C1c1ccco1 (configuration not stated)	inconclusive: 12.6 µM [activator, partial curve]	
COc1cc(SC)ccc1C(=O)NCCOc1ccc(Cl)cc1	inconclusive: 20 µM [activator, single point]	
O=C(Nc1ccc(N2CCOCC2)nc1)c1ccc(Cl)cc1	inactive	
COc1ccc(-c2oc3ccccc3c2C#Cc2cncn2C)cc1	inconclusive: 20 µM [activator, single point]	
CCCn1c(SCC(=O)N2c3ccccc3Sc3ccccc32)nc2ccccc21	inconclusive: 11.2 µM [activator, partial curve]	
O=C(OCCNC(=O)c1ccc2ccccc2n1)c1ccc(F)cc1	inconclusive: 35.5 µM [activator, single point]	
O=C(/C=C/c1ccc(Br)o1)NC(c1ccccc1)c1ccccc1	inconclusive: 17.8 µM [activator, single point]	
c1ccc(N2CCN(c3nc(-c4cccs4)nc4ccccc34)CC2)cc1	inconclusive: 11.2 µM [activator, partial curve]	
Cc1ccc(O)c(C(=O)c2cnc3c(c2)COc2ccc(C)cc2-3)c1	inconclusive: 35.5 µM [activator, single point]	
O=C(c1cccs1)N1CCn2c1nc1ccccc12	inactive	
Cc1ccccc1CN(C)CC(=O)Nc1c(C)cccc1C(C)C	inconclusive: 17.8 µM [activator, single point]	
Nc1c(C(=O)Nc2ccc3c(c2)OCCO3)nnn1Cc1cccc(Cl)c1	inconclusive: 10 µM [activator, partial curve]	
COc1ccc(S(=O)(=O)CCc2nnc(NC(C)=O)s2)cc1	inconclusive: 35.5 µM [activator, single point]	
COc1ccc(C2/C=C\CN(C(=O)Nc3ccccc3-c3ccccc3)CC(=O)N2Cc2ccc(F)cc2)cc1 (configuration not stated)	inconclusive: 11.2 µM [activator, partial curve]	
COc1cc(/C=C2\SC(=S)N(CCC(=O)N3CCCCC3)C2=O)cc(OC)c1OC	inactive	
O=C1NC(=O)/C(=C\c2ccc(Oc3ccc([N+](=O)[O-])cn3)cc2)S1	inconclusive: 14.1 µM [activator, partial curve]	
CCn1c2ccccc2c2cc(NC(=O)c3ccco3)ccc21	inconclusive: 17.8 µM [activator, single point]	
COC(=O)C1=C(NC(=O)COc2ccc3ccccc3c2)CCS1	inactive	
CCc1ccc(OC(=O)CN2C(=O)c3ccccc3C2=O)cc1	inactive	

SMILES	Potency	growth rescue (activation)
Nc1nc(Nc2ccccc2F)nc(NC2CCCCC2)c1[N+](=O)[O-]	inconclusive: 20 µM [activator, partial curve, poor fit]	
COCCCNc1nc(N)c([N+](=O)[O-])c(NC2CCCCC2)n1	inconclusive: 7.94 µM [activator, single point]	
COC(=O)C1C(=O)c2c([nH]c(C(=O)OC3CCCC3C)c2C)CC1C (configuration not stated)	inconclusive: 17.8 µM [activator, single point]	
COc1ccc(-c2nc(SCC(=O)NC3CCCC3)c(-c3ccc(OC)cc3)[nH]2)cc1	inconclusive: 22.4 µM [activator, single point]	
O=C(O)CC1COc2ccccc2N1C(=O)c1ccccc1Cl (configuration not stated)	inconclusive: 10 µM [activator, partial curve]	
CCOC(=O)N(Cc1ccccc1)C(C(=O)O)C(C(=O)O)N(Cc1ccccc1)C(=O)OCC (configuration not stated)	inconclusive: 3.98 µM [activator, partial curve]	
O=C(/C=C/c1cccc(Cl)c1)N1CCC(Cc2ccccc2)CC1	inconclusive: 22.4 µM [activator, single point]	
O=C(Nc1ccc(OCC(=O)N2CCC(Cc3ccccc3)CC2)cc1)c1ccco1	inconclusive: 20 µM [activator, single point]	
O=S(=O)(c1ccc(Br)s1)N1CCN(c2ccnc3cc(Cl)ccc23)CC1	inconclusive: 11.2 µM [activator, partial curve]	
O=C(Nc1nc2nc(-c3ccccc3)cc(-c3ccccc3)n2n1)c1ccco1	inconclusive: 35.5 µM [activator, single point]	
CN1[C@@H](CC(=O)c2ccccc2)CCC[C@H]1C[C@H](O)c1ccccc1	inconclusive: 11.2 µM [activator, partial curve]	
COc1ccc(Cl)cc1-n1c(C)cc(C(=O)OCC(=O)N2CC(=O)Nc3ccccc32)c1C	inconclusive: 31.6 µM [activator, single point]	
Cc1cc(NC(=O)Nc2c[nH]c(=O)[nH]c2=O)ccc1Br	inactive	
O=C(COc1ccc(F)cc1Cl)Nc1nc(-c2ccccn2)cs1	inconclusive: 35.5 µM [activator, single point]	
O=C(c1ccccc1)c1nn(-c2ccccc2)c2nnc(Cc3ccccc3)c(=O)n12	inconclusive: 11.2 µM [activator, partial curve]	
COc1ccc(C(=O)/C=C/C(=O)N(Cc2ccc(F)cc2)C(C(=O)NC2CCCCC2)c2ccncc2)c(O)c1 (configuration not stated)	inconclusive: 14.1 µM [activator, partial curve]	
CCOC(=O)c1c(C)[nH]c(C)c1C(=O)COC(=O)/C=C/c1cccc(C(F)(F)F)c1	inconclusive: 35.5 µM [activator, single point]	
COc1ccc(NC(=O)COC(=O)Cc2c(F)cccc2Cl)cc1OC	inconclusive: 35.5 µM [activator, partial curve]	
CCCCc1ccc(NC(=S)NCc2cccc(OC)c2)cc1	inactive	
CC(=O)NC1=C(C#N)C(c2ccccc2)c2c(ccc3ccccc23)O1 (configuration not stated)	inconclusive: 35.5 µM [activator, single point]	
O=C(O)CSc1ncnc2sc(-c3ccccc3)cc12	inactive	
CCN(C(=O)[C@@H]1CCCN1C(=O)c1cccs1)c1nc2cc(Cl)ccc2s1	inconclusive: 15.8 µM [activator, single point]	
O=C(O)c1ccc(CSc2nc(-c3ccccc3)cc(C(F)(F)F)n2)cc1	inconclusive: 11.2 µM [activator, partial curve]	

SMILES	Potency	growth rescue (activation)
Cc1ccc2c(c1)c1ncnc(N3CCC4(CC3)OCCO4)c1n2C	inactive	
CC(NC(=O)c1ccco1)c1nc(-c2ccc(Cl)cc2)no1 (configuration not stated)	inconclusive: 14.1 µM [activator, single point]	
O=c1o[nH]c(-c2ccccc2)c1N=Nc1c(F)cccc1Cl	inconclusive: 14.1 µM [activator, partial curve]	
O=C(COC(=O)c1ccccc1C(=O)c1ccc(Cl)cc1)NCCc1ccccc1	inconclusive: 11.2 µM [activator, single point]	
N=C1/C(=C/c2cccn2Cc2ccc(F)cc2)C(=O)N=C2SC=CN12	inactive	
CN1/C(=C/c2cccc[n+]2C)Sc2ccccc21	inactive	
Nc1nsc2ccccc12	inconclusive: 3.16 µM [activator, single point]	
Cc1ccc(CN2C(=O)C(CC(C)C)Nc3ncnc(N4CCN(c5ccccn5)CC4)c32)cc1 (configuration not stated)	inconclusive: 31.6 µM [activator, single point]	
CCCOC(=O)c1ccc(Oc2cn[nH]c2-c2ccc(OCC(=O)NN)cc2O)cc1	inconclusive: 4.47 µM [activator, single point]	
C/C(=N\NC(=S)NCc1ccccc1)c1ccc(Br)cc1	inconclusive: 35.5 µM [activator, single point]	
Cc1ccc(OCCSc2nc(N)cc(N)n2)cc1	inconclusive: 35.5 µM [activator, single point]	
Cc1ccc(-c2cc(-c3ccccc3Cl)c(C#N)c(N)n2)o1	inconclusive: 35.5 µM [activator, single point]	
O=c1[nH]c(CN2CCN(c3ccc(O)cc3)CC2)nc2scc(-c3ccc(Cl)cc3)c12	inactive	
CCN1C(=O)[C@@H]2[C@@H](c3ccc(-c4ccc(F)cc4)c(OC)c3)N3CCCC[C@@]3(C(=O)OC)[C@@H]2C1=O	inconclusive: 15.8 µM [activator, partial curve]	
Cc1ccc(C)c(NC(=S)NC2CC3CCC(C2)N3Cc2ccco2)c1 (configuration not stated)	inactive	
Cc1ccc(CS(=O)(=O)c2ncc(Cl)c(C(=O)Nc3nnc(C(C)C)s3)n2)cc1	inactive	
COc1cccc(CNC(=S)Nc2ccc(Cl)cc2C)c1	inactive	
O=C(O)CSc1nc(-c2ccc(Cl)cc2)nc2c1oc1ccccc12	active: 8.91 µM	
Cc1cc(C(=O)NNS(=O)(=O)c2ccc(C(C)(C)C)cc2)nn1C(C)(C)C	inconclusive: 17.8 µM [activator, partial curve]	
COCCNC(=O)[C@@H]1CSC2c3ccc(OC)c(OC)c3C(=O)N21 (some centres not stated)	inconclusive: 0.562 µM [activator, partial curve, poor fit]	
CNC(=O)N(O)C1N(/N=C/c2ccc(N(C)C)cc2)C(=S)SC1(C)C (configuration not stated)	inactive	

Arranged by length of the SMILES (low to high): three of the compounds above
SMILES	Potency	growth rescue (activation)
Cc1ccc2c(c1)c1ncnc(N3CCC4(CC3)OCCO4)c1n2C	inactive	
O=c1[nH]c(CN2CCN(c3ccc(O)cc3)CC2)nc2scc(-c3ccc(Cl)cc3)c12	inactive	
Cc1ccc(CN2C(=O)C(CC(C)C)Nc3ncnc(N4CCN(c5ccccn5)CC4)c32)cc1 (configuration not stated)	inconclusive: 31.6 µM [activator, single point]	
